Results from US20220403028A1 (NUMAB THERAPEUTICS, published 2022).
Substitutions are numbered along the chain they refer to. These are yes or no findings as the source states them, for the method shown. Some binding calls cover weakened binding; strength is not graded here. Blank lines part the entries; values can stand above or below the binder they belong to.

Chains of the proteins cited; added tags and fusions are not shown. Lines headed by an entry give the natural chain unless they say otherwise; changes in a name come on top.
UniProt P07766: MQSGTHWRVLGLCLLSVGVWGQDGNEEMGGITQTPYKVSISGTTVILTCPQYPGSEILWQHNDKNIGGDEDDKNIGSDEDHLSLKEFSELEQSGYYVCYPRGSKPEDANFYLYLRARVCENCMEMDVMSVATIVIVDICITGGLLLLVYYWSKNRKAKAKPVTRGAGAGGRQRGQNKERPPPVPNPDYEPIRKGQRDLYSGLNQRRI

Molecular target: human CD3ε (recombinant, coupled to the SPR chip) (human) (UniProt P07766)
Assay: SPR, scFv on immobilised CD3ε

B2: 28-21-D09-sc15 (scFv)
scFv: DIQMTQSPSSLSASVGDRVTITCQSSQSVFSNNYLAWYQQKPGQSPKRLIYSASTLASGVPSRFSGSGSGTHFTLTISSLQPEDFATYYCLGSYACSSADCYVFGTGTKVTVLGGGGGSGGGGSGGGGSGGGGSEVQLVESGGGLVQPGGSLRLSCAASGFSLSSYDMSWVRQAPGKGLEWIGASYASGPTYYASWAKGRFTISRDNSKNTVYLQMNSLRAEDTATYFCARGGWTGTSHSNIWGQGTLVTVSS
binding: binds

B3: 28-21-D09-sc21 (scFv)
scFv: B2 scFv with H72D, E180A, T226V, F228Y
binding: binds

B5: 28-21-D09-sc16 (scFv)
scFv: B2 scFv with H72D
binding: binds

B8: 28-21-D09-sc19 (scFv)
scFv: B2 scFv with H72D, T226V, F228Y
binding: binds

B10: 28-21-D09-sc04 (scFv)
scFv: B2 scFv with Y38F, H72D, E180A
binding: binds

B11: 28-21-D09-sc18 (scFv)
scFv: B2 scFv with T226V, F228Y
binding: binds

The next lines start with the values.

binding: binds
B1: 28-21-D09-sc28 (scFv)
scFv: B2 scFv with Y38F, Q44K, S45A, H72D, T226V, F228Y

binding: binds
B4: 28-21-D09-sc24 (scFv)
scFv: B2 scFv with R48K, H72D, E180A, T226V, F228Y

binding: binds
B6: 28-21-D09-sc22 (scFv)
scFv: B2 scFv with Y38F, H72D, T226V, F228Y

binding: binds
B7: 28-21-D09-sc26 (scFv)
scFv: B2 scFv with H72Q, E180A, T226V, F228Y

binding: binds
B9: 28-21-D09-sc23 (scFv)
scFv: B2 scFv with Q44K, S45A, H72D, E180A, T226V, F228Y

binding: binds
B12: 28-21-D09-sc27 (scFv)
scFv: B2 scFv with H72D, A158V, E180A, T226V, F228Y
